pKd: −log10 of the molar value. At least one peptide structure holds a part that was inferred or is arguable (an end, a ring closure or a residue). Square brackets hold non-standard residues; d marks the D form. Peptide text beside a SMILES is read from it. pY = N[C@@H](Cc1ccc(OP(=O)(O)O)cc1)C(=O)O
Molecular target: T1, SNT-1 PTB domain (Homo sapiens, UniProt Q8WU20)
T1 construct: His6 (C, cleaved yes); made in house; host or cells: Escherichia coli BL21(DE3)
T1 sequence (Q8WU20 11-140): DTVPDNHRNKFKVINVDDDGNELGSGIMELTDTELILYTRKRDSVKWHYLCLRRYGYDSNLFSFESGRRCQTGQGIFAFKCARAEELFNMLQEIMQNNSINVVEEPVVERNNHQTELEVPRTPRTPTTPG
Assay: Binding of tyrosine-phosphorylated peptide to the SNT-1 PTB domain

## CC[C@H](C)[C@H](NC(=O)[C@@H](NC(=O)[C@@H](N)CC(C)C)C(C)C)C(=O)N[C@@H](C)C(=O)NCC(=O)N[C@@H](CC(N)=O)C(=O)N1CCC[C@H]1C(=O)N[C@@H](C)C(=O)N[C@@H](Cc1ccc(OP(=O)(O)O)cc1)C(=O)N[C@@H](CCCNC(=N)N)C(=O)N[C@@H](CO)C(=O)O [SEQ ID NO:4, LVIAGNPApYRS] (H-LVIAGNPA[pY]RS-OH; N-terminus and C-terminus assumed)
Higher affinity than SEQ ID NO:3 peptide
  affinity of SNT-1 PTB domain binding, relative to the FGFR derived peptide of SEQ ID NO:3: about 10 fold
read-out: Kd of binding to the SNT-1 PTB domain
  pKd: ~6.00
